Source: PubChem BioAssay AID504847 (National Center for Advancing Translational Sciences (NCATS), 2011)
Out of some 400,000 compounds screened, about 3,700 (0.93%) were called active. This list was built around the results that the source calls inconclusive (neither active nor inactive); the mix of calls is not that of the screen. Calls follow the shape of the dose curve; as a rule, active = well fitted inhibition curve with a large enough effect; inconclusive = small, poorly fitted or top-dose-only effect, or another doubt; inactive = no such curve, though single readings can be large or run the other way. A potency beside an inconclusive call is a rough fit, not a confirmed value.
% is scaled to controls: 0 for no effect and ±100 for the full control effect; potency is read from the fitted curve at half-maximal effect.

Sequences of proteins named here, by UniProt entry; tags and fusion partners are left off. A change or cut given only in a name is not applied to a line headed by its entry.
UniProt P11473: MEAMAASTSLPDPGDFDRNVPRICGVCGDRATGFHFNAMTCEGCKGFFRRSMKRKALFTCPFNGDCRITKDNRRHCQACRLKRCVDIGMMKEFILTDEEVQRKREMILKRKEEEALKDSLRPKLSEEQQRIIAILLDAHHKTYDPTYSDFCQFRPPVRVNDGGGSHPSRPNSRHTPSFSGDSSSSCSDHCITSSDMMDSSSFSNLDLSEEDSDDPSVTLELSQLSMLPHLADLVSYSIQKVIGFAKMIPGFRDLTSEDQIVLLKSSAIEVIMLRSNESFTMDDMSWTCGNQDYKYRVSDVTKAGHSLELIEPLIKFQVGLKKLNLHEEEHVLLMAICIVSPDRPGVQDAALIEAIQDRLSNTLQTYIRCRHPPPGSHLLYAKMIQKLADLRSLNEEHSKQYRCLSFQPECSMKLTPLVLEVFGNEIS

Each compound was assayed against Vitamin D3 receptor (Homo sapiens) (UniProt P11473) (assay: Inhibitors of the vitamin D receptor (VDR): qHTS). Conditions: VDR-SRC2-3 peptide fluorescence polarization, 2 h; max response, negative = inhibition: active compounds read low.
Summary of the method: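 VDR–SRC2-3 interaction, FP format. Cmpds 23 nl via pintool, brief spin, 2 h ambient incubation.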
With `CN1CCc2nc(SCC(=O)Nc3ccc(OC(F)(F)F)cc3)c(C#N)c(-c3cccs3)c2C1` the Potency was inconclusive: 39.8 µM [inhibitor, full curve, poor fit].
In the case of `Nc1ccc(Nc2ccccc2)c(S(=O)(=O)O)c1`, the max response, negative = inhibition is reported as inactive: 9.38%.
In the case of `Cc1cc(C)nc(S/C=C/C(=O)c2ccccc2)n1`, the Potency is reported as inconclusive: 15.8 µM [inhibitor, partial curve, poor fit].
For `COc1ccc(CNC(=O)[C@H](C)NC(=O)C2CC(=O)N(c3ccc(OC)cc3)C2)cc1` (stereo partly drawn), the Potency was inconclusive: 39.8 µM [inhibitor, partial curve, poor fit].
`O=C(NCCN1C(=O)C2C3C=CC(C3)C2C1=O)NCc1ccccc1` (stereo not drawn) was tested, and the Potency was active: 89.1 µM.
In the case of `COc1ccc(OC)c(-c2cc(C3CCN(c4cc(Cl)nc(N)n4)CC3)[nH]n2)c1`, the Potency is reported as inconclusive: 89.1 µM [inhibitor, single point].
`CCCCNc1cc(NC2CCCCC2)c2c3c(onc13)-c1ccccc1C2=O` was tested, and the Potency was inconclusive: 89.1 µM [inhibitor, single point].
`C=C1C(=O)C2=CC1CCC(=O)C1(C)CCC(OC(C)=O)C(C)(C)C1CC2O` (stereo not drawn) was tested, and the Potency was inconclusive: 89.1 µM [inhibitor, single point].
In the case of `CCC(Cn1nnc2ccccc2c1=O)NC(=O)Nc1cccc(Cl)c1` (stereo not drawn), the max response, negative = inhibition is reported as inactive: -1.21%.
With `Cc1ccc(-c2cc(-c3ccc(C)o3)nc(N)c2C#N)cc1` the Potency was inconclusive: 89.1 µM [inhibitor, partial curve, poor fit].
`Cc1ccc(S(=O)(=O)N2CCCC(c3nnc4n3-c3ccccc3SC4)C2)cc1` (stereo not drawn) was tested, and the max response, negative = inhibition was inactive: 3.01%.
With `O=C(c1ccc(Cl)cc1Cl)N1CCSCC1` the Potency was inconclusive: 89.1 µM [inhibitor, single point].
`COc1cc(C(=O)Nc2ccc(-c3cc(C(F)(F)F)nn3-c3ccccc3)cc2)cc(OC)c1OC` was tested, and the max response, negative = inhibition was inactive: -11.6%.
For `O=C(O)CN1C(=O)/C(=C\c2cc(Br)ccc2OCc2ccccc2F)SC1=S`, the Potency was inconclusive: 50.1 µM [inhibitor, partial curve, poor fit].
In the case of `O=C(c1ccc(S(=O)(=O)N2CCCCCC2)cc1)N1CCN(c2ccccc2)CC1`, the Potency is reported as inconclusive: 39.8 µM [inhibitor, partial curve].
`COC(=O)c1c(NC(=O)CSc2nnc(-c3ccco3)n2C)sc(C)c1C` was tested, and the Potency was inconclusive: 25.1 µM [inhibitor, full curve, poor fit].
With `COCCNC(=O)C(=O)Nc1c2c(nn1-c1ccccc1)CS(=O)(=O)C2` the max response, negative = inhibition was inactive: 8.7%.
`COc1cc2c(cc1NC(=O)c1ccccc1C)n(C)c(=O)n2C` was tested, and the max response, negative = inhibition was inactive: -9.23%.
With `CCOC(=O)N1C(=O)[C@](c2ccc(Cl)cc2)(C(C)C)N1C(=O)OCC` the max response, negative = inhibition was inactive: -24.2%.
With `Fc1ccc(Nc2ccnc(-c3ccc4c(c3)OCO4)n2)cc1` the Potency was active: 39.8 µM.
In the case of `CCc1ccc2nc(N(CCN(C)C)C(=O)c3ccc4ncsc4c3)sc2c1`, the Potency is reported as active: 70.8 µM.
With `Cc1cccc(NC(=O)CSC2=NN3CCCC(=O)N=C3S2)c1C` the max response, negative = inhibition was inactive: -14.1%.
`Cc1ccc2sc(C)[n+](CCC(C)S(=O)(=O)[O-])c2c1` (stereo not drawn) was tested, and the Potency was inconclusive: 56.2 µM [inhibitor, partial curve, poor fit].
In the case of `O=C(Cn1c[n+](CC(=O)c2ccc([N+](=O)[O-])cc2)cn1)c1ccc([N+](=O)[O-])cc1`, the Potency is reported as inconclusive: 56.2 µM [inhibitor, partial curve, poor fit].
In the case of `COc1cc(/C=C2/C(=N)N3C(SC)=NSC3=NC2=O)ccc1OC(=O)c1ccco1`, the Potency is reported as inconclusive: 79.4 µM [inhibitor, partial curve].
With `CCOC(=O)Cn1cc(/C=C/[N+](=O)[O-])c2ccccc21` the Potency was inconclusive: 22.4 µM [inhibitor, partial curve, poor fit].
With `COc1ccc(CC(=O)N(C)CC(=O)Nc2ccccc2SC)cc1` the Potency was inconclusive: 56.2 µM [inhibitor, partial curve, poor fit].
For `COc1ccc(S(=O)(=O)N(C)C)cc1NC(=O)CSc1ncccn1`, the Potency was inconclusive: 89.1 µM [inhibitor, single point].
With `O=C(N=C1SC2CS(=O)(=O)CC2N1c1ccc(F)cc1)C1CCCCC1` (stereo not drawn) the max response, negative = inhibition was inactive: 2.03%.
`CC(=O)c1ccc(OC(=O)CCc2nc3ccccc3s2)cc1` was tested, and the Potency was active: 39.8 µM.
With `COC(=O)C1=C(C)NC(=S)NC1c1ccc(-c2cc(Cl)ccc2Cl)o1` (stereo not drawn) the Potency was inconclusive: 79.4 µM [inhibitor, partial curve, poor fit].
With `Cc1noc(NS(=O)(=O)c2cccc3c(N(C)C)cccc23)c1C` the Potency was active: 25.1 µM.
For `C=CCSC1=C(C#N)C(c2ccc(C(C)C)cc2)CC(=O)N1` (stereo not drawn), the Potency was inconclusive: 89.1 µM [inhibitor, single point].
For `CCOc1ccc(NC(=O)CN(C)C(=O)c2ccccc2SCc2c(C)noc2C)cc1OCC`, the Potency was inconclusive: 79.4 µM [inhibitor, single point].
In the case of `CCOC(=O)N1CCN(C(=O)Nc2ccc3oc(C)nc3c2)CC1`, the Potency is reported as inconclusive: 100 µM [inhibitor, single point].
For `COc1ccc(NC(=O)c2cc(-c3ccccc3F)no2)cc1`, the max response, negative = inhibition was inactive: 11.1%.
For `NNC(=O)c1cccc(S(=O)(=O)Nc2cccc(C(F)(F)F)c2)c1`, the max response, negative = inhibition was inactive: -21.8%.
For `CCOc1c(C=C(C#N)C#N)c2ccccc2n1CC`, the Potency was inconclusive: 63.1 µM [inhibitor, partial curve, poor fit].
`CCOC(=O)C(CC)N1CCN(Cc2ccc(F)cc2)C(=O)C1=O` (stereo not drawn) was tested, and the max response, negative = inhibition was inactive: 11.7%.
For `CCNc1ncc2nc(-c3ccc(F)cc3)c(=O)n(-c3ccccc3)c2n1`, the max response, negative = inhibition was inactive: -18.2%.
`O=C(Cn1nc(Cc2ccncc2)c2ccccc2c1=O)N1CCc2ccccc2C1` was tested, and the Potency was inconclusive: 79.4 µM [inhibitor, partial curve, poor fit].
For `CN(Cc1ccc(Cl)s1)C(=O)CCl`, the Potency was inconclusive: 89.1 µM [inhibitor, single point].
For `CCc1ccc(NC(=O)Cn2c(=O)n(CCCC(=O)NCc3ccc4c(c3)OCO4)c(=O)c3ccccc32)cc1`, the max response, negative = inhibition was inactive: -2.78%.
